Reference: paper PMC5632675
No constants are given. Whether binding was seen depends on the method and setting. Binding seen in cells or lysates may run through a third protein. A result given as binding can be weak or reduced; the word gives no strength.

Amino acid sequences for entries named in this document (tags omitted). A change or cut given only in a name is not applied to a line headed by its entry.
UniProt Q9ESF1: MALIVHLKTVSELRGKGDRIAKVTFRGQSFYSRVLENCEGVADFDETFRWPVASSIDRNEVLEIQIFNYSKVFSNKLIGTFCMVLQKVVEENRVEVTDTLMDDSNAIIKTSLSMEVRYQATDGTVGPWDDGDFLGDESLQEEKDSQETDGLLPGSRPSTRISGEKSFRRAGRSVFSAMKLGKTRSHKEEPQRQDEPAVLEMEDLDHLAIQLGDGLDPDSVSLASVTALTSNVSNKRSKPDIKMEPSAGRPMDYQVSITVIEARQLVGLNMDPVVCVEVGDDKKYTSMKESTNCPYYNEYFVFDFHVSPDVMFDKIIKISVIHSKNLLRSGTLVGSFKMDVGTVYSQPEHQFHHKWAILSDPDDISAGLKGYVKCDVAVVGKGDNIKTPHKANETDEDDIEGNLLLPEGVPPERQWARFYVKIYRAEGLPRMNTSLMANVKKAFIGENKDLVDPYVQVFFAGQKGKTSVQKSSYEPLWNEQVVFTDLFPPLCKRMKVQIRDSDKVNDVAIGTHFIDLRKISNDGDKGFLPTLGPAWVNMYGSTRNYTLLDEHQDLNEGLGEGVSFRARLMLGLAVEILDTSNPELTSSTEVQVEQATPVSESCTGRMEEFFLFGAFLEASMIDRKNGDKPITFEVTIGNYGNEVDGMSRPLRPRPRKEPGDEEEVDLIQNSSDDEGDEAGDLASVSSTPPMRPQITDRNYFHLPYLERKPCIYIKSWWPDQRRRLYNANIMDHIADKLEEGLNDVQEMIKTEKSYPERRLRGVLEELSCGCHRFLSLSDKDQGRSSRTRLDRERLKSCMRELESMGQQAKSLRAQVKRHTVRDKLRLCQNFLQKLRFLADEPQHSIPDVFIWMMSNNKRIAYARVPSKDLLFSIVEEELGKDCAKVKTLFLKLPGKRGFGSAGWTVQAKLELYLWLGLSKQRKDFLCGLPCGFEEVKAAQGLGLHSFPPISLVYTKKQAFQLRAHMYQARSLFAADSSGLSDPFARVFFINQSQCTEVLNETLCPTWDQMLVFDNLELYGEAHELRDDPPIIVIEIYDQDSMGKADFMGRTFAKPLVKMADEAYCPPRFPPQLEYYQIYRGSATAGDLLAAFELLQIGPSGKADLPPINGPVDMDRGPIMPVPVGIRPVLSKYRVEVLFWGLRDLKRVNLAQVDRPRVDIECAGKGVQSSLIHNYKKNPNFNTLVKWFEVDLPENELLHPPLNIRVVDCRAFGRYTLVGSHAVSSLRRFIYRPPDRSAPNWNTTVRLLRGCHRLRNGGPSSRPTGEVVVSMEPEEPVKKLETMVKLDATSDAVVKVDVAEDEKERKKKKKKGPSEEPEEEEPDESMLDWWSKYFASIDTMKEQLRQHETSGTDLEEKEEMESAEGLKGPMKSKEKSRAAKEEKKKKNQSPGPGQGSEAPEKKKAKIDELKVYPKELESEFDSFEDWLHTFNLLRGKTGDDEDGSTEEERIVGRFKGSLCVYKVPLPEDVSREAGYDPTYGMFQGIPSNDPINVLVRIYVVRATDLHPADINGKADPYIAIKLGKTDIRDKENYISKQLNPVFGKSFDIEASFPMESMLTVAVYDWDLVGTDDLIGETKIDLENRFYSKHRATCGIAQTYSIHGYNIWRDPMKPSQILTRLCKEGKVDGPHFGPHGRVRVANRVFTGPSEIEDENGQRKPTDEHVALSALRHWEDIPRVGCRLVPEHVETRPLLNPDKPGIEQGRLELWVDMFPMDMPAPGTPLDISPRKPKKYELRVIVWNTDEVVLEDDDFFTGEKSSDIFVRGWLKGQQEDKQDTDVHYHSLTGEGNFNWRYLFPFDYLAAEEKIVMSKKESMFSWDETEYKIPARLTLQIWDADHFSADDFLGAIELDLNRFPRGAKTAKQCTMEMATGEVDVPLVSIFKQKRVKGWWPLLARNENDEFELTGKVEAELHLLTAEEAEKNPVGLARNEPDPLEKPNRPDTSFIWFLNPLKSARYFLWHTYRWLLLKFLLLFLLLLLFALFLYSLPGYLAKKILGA

How the values were obtained:
[1] = target: mouse otoferlin fragment C2DEF-HA (aa 933-1920) (mouse) (UniProt Q9ESF1); test: co-IP; HEK293 cells co-transfected with CaMKIIδ-mcherry and C2ABC-HA, C2DEF-HA or both; lysate in TBS pH 7.4 on anti-HA agarose, 2 h at 4°C, washed with TBS-T; blots with anti-HA and anti-RFP
[2] = target: mouse otoferlin fragment C2ABC-HA (aa 1-632) (mouse) (UniProt Q9ESF1); test: as above

binding [1]: binds weakly
binding [2]: binds
Substance: full-length mcherry-tagged mouse CaMKIIδ (from UniProt Q6PHZ2-1 1-499) (enzyme)
